PubChem BioAssay AID1259424 | University of Nebraska Medical Center, 2018
Screen: 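Find knockdowns that reproduce the expression shifts seen after KSR1 loss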 (primary screen). Cells: human HCT116 colon cancer cells. Reagent: siRNA pool against human genes, 50 nM. Read-out: 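Log2 levels of six mRNAs (branched-DNA multiplex), adjusted by two reference genes and the non-targeting median, then scored against the average KSR1 knockdown pattern as Pearson r and euclidean distance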. Scale: mean correlation with KSR1 profile and KSR1 correlation: higher = expression change more like KSR1 knockdown; mean distance from KSR1 profile: higher = expression change less like KSR1 knockdown.
In all, the deposit lists about 14,000 reagents; this is an unselected part. 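Higher correlation or smaller distance means closer resemblance to KSR1 loss; control wells, including KSR1 knockdowns, recur on many plates.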 The record does not give: the time to read-out.

The opening 4 records, to show the layout:
Gene	PubChem SID	mean correlation with KSR1 profile	mean distance from KSR1 profile	KSR1 correlation, replicate 1	KSR1 correlation, replicate 2	KSR1 correlation, replicate 3
INF2	SID364002474	-0.442	2.48	-0.374	-0.684	-0.435
INF2	SID364004134	0.891	1.21	0.889	0.796	0.618
CYP19A1	SID363991440	-0.432	2.89	-0.269	-0.452	-0.704
DTWD1	SID364001579	-0.475	2.79	-0.577	-0.301	-0.489

Results, repeating the preview:
Gene	PubChem SID	mean correlation with KSR1 profile	mean distance from KSR1 profile	KSR1 correlation, replicate 1	KSR1 correlation, replicate 2	KSR1 correlation, replicate 3
INF2	SID364002474	-0.442	2.48	-0.374	-0.684	-0.435
INF2	SID364004134	0.891	1.21	0.889	0.796	0.618
CYP19A1	SID363991440	-0.432	2.89	-0.269	-0.452	-0.704
DTWD1	SID364001579	-0.475	2.79	-0.577	-0.301	-0.489
KCNA3	SID363993432	-0.527	1.24	-0.329	-0.425	-0.31
MMD	SID363998239	-0.25	2.64	-0.213	-0.38	-0.122
ZNF282	SID363994655	0.183	2.27	-0.0167	0.278	0.202
BCR	SID363995316	-0.0512	1.89	0.205	-0.426	-0.31
TMEM214	SID364000475	0.0592	2.67	-0.0925	-0.09	0.132
PAPOLA	SID364004103	-0.189	1.48	0.104	-0.046	-0.345
SEMA4D	SID363997193	-0.862	2.3	-0.789	-0.639	-0.38
MAP3K4	SID363996790	0.529	1.74	0.307	0.854	0.543
ARHGAP23	SID364005350	-0.749	5.66	-0.696	-0.487	-0.593
CES3	SID364003163	0.666	1.44	0.704	0.654	0.472
TMEM255A	SID364000659	-0.487	2.79	-0.66	-0.553	-0.22
MAP4	SID363993555	0.063	3.38	0.0967	-0.0231	0.0409
UTP3	SID364001636	0.458	6.61	0.257	0.466	0.577
VN1R3	SID364004864	0.518	1.48	0.554	0.558	0.563
FUS	SID363995902	-0.539	1.55	-0.401	-0.894	-0.896
ALKBH7	SID364003892	0.691	1.51	0.48	0.68	0.686
ARHGAP20	SID364001843	-0.643	3.96	-0.228	-0.731	-0.532
ACVRL1	SID363991359	-0.000443	4.04	0.0243	-0.0793	-0.247
ARMH3	SID364002859	0.671	2.2	0.847	0.791	0.185
SQLE	SID363994270	-0.355	2.2	-0.364	-0.422	-0.305
MT4	SID364004278	0.883	0.974	0.849	0.604	-0.21
COX17	SID363996584	0.471	1.21	0.374	0.534	0.326
HEXIM1	SID363997268	-0.496	2.05	-0.367	-0.453	-0.443
HHLA1	SID363996598	0.677	1.88	0.833	0.248	0.402
MRPL1	SID364001581	-0.0769	1.53	0.245	-0.0337	-0.522
ARF1	SID363992882	-0.181	2.31	-0.359	-0.425	0.13
BRF2	SID364000966	-0.15	2.11	0.258	-0.00236	-0.392
FSCN1	SID363994232	-0.498	3.01	-0.536	-0.496	-0.613
TAF15	SID363994585	0.606	0.97	0.454	0.402	0.695
USP46	SID364002576	0.251	0.984	0.219	-0.206	0.51
